In the supplement of paper PMC8728848:
This is one part of the list.

Experiments:
Assay in all cases: glycan array binding signal (z-score within array); higher = stronger binding
Details in all cases: glycan notation: IUPAC condensed, linker removed
[1] = target: Fuc(a1-2)Gal(b1-4)GlcNAc(b1-2)[Fuc(a1-2)Gal(b1-4)GlcNAc(b1-4)]Man(a1-3)[Fuc(a1-2)Gal(b1-4)GlcNAc(b1-2)Man(a1-6)]Man(b1-4)GlcNAc(b1-4)GlcNAc
Procedure, shortened: (§1)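 From the Consortium for Functional Glycomics database, 3228 arrays were curated, keeping only those whose protein sequence was available. Binding is given as a within-array Z-score averaged across arrays sharing a protein sequence and across linkers. Negative Z-scores can be read as non-binding.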

[2] = target: Fuc(a1-2)Gal(b1-4)GlcNAc(b1-3)Gal(b1-4)GlcNAc
Procedure, shortened: as §1

[3] = target: Fuc(a1-2)Gal(b1-4)GlcNAc(b1-3)Gal(b1-4)GlcNAc(b1-2)Man(a1-3)[Fuc(a1-2)Gal(b1-4)GlcNAc(b1-3)Gal(b1-4)GlcNAc(b1-2)Man(a1-6)]Man(b1-4)GlcNAc(b1-4)GlcNAc
Procedure, shortened: as §1

[4] = target: Fuc(a1-2)Gal(b1-4)GlcNAc(b1-3)Gal(b1-4)GlcNAc(b1-3)Gal(b1-4)GlcNAc
Procedure, shortened: as §1

[5] = target: Fuc(a1-2)Gal(b1-4)GlcNAc(b1-3)GalNAc
Procedure, shortened: as §1

[6] = target: Fuc(a1-2)Gal(b1-4)GlcNAc(b1-3)[Fuc(a1-2)Gal(b1-4)GlcNAc(b1-6)]GalNAc
Procedure, shortened: as §1

[7] = target: Fuc(a1-2)Gal(b1-4)GlcNAc(b1-3)[Fuc(a1-3)[Gal(b1-4)]GlcNAc(b1-6)]Gal(b1-4)Glc
Procedure, shortened: as §1

[8] = target: Fuc(a1-2)Gal(b1-4)GlcNAc(b1-6)GalNAc
Procedure, shortened: as §1

[9] = target: Fuc(a1-2)Gal(b1-4)GlcNAc6S
Procedure, shortened: as §1

[10] = target: Fuc(a1-2)Gal(b1-4)[Fuc(a1-3)]GlcNAc
Procedure, shortened: as §1

[11] = target: Fuc(a1-2)Gal(b1-4)[Fuc(a1-3)]GlcNAc(b1-2)Man(a1-3)[Fuc(a1-2)Gal(b1-4)[Fuc(a1-3)]GlcNAc(b1-2)Man(a1-6)]Man(b1-4)GlcNAc(b1-4)GlcNAc
Procedure, shortened: as §1

[12] = target: Fuc(a1-2)Gal(b1-4)[Fuc(a1-3)]GlcNAc(b1-2)Man(a1-3)[Fuc(a1-2)Gal(b1-4)[Fuc(a1-3)]GlcNAc(b1-2)Man(a1-6)]Man(b1-4)GlcNAc(b1-4)[Fuc(a1-6)]GlcNAc
Procedure, shortened: as §1

[13] = target: Fuc(a1-2)Gal(b1-4)[Fuc(a1-3)]GlcNAc(b1-2)[Fuc(a1-2)Gal(b1-4)[Fuc(a1-3)]GlcNAc(b1-4)]Man(a1-3)[Fuc(a1-2)Gal(b1-4)[Fuc(a1-3)]GlcNAc(b1-2)Man(a1-6)]Man(b1-4)GlcNAc(b1-4)GlcNAc
Procedure, shortened: as §1

[14] = target: Fuc(a1-2)Gal(b1-4)[Fuc(a1-3)]GlcNAc(b1-3)Gal(b1-4)[Fuc(a1-3)]GlcNAc
Procedure, shortened: as §1

[15] = target: Fuc(a1-2)Gal(b1-4)[Fuc(a1-3)]GlcNAc(b1-3)Gal(b1-4)[Fuc(a1-3)]GlcNAc(b1-3)Gal(b1-4)[Fuc(a1-3)]GlcNAc
Procedure, shortened: as §1

[16] = target: Fuc(a1-2)Gal(b1-4)[Fuc(a1-3)]GlcNAc(b1-3)GalNAc
Procedure, shortened: as §1

[17] = target: Fuc(a1-2)Gal(b1-4)[Fuc(a1-3)]GlcNAc(b1-3)[Neu5Ac(a2-6)Gal(b1-4)GlcNAc(b1-6)]Gal(b1-4)Glc
Procedure, shortened: as §1

[18] = target: Fuc(a1-2)Gal3S(b1-4)GlcNAc
Procedure, shortened: as §1

[19] = target: Fuc(a1-2)Gal6S(b1-3)GlcNAc
Procedure, shortened: as §1

[20] = target: Fuc(a1-2)Gal6S(b1-3)GlcNAc6S
Procedure, shortened: as §1

Fuc(a1-2)Gal6S(b1-4)Glc = target: Fuc(a1-2)Gal6S(b1-4)Glc
Procedure, shortened: as §1

[21] = target: Fuc(a1-2)Gal6S(b1-4)Glc6S
Procedure, shortened: as §1

[22] = target: Fuc(a1-2)Gal6S(b1-4)GlcNAc
Procedure, shortened: as §1

Fuc(a1-2)[Gal(a1-3)]Gal = target: Fuc(a1-2)[Gal(a1-3)]Gal
Procedure, shortened: as §1

[23] = target: Fuc(a1-2)[Gal(a1-3)]Gal(b1-3)GalNAc
Procedure, shortened: as §1

[24] = target: Fuc(a1-2)[Gal(a1-3)]Gal(b1-3)GalNAc(b1-3)Gal(a1-4)Gal(b1-4)Glc
Procedure, shortened: as §1

[25] = target: Fuc(a1-2)[Gal(a1-3)]Gal(b1-3)GlcNAc
Procedure, shortened: as §1

[26] = target: Fuc(a1-2)[Gal(a1-3)]Gal(b1-3)GlcNAc(b1-2)Man(a1-3)[Fuc(a1-2)[Gal(a1-3)]Gal(b1-3)GlcNAc(b1-2)Man(a1-6)]Man(b1-4)GlcNAc(b1-4)GlcNAc
Procedure, shortened: as §1

[27] = target: Fuc(a1-2)[Gal(a1-3)]Gal(b1-3)GlcNAc(b1-2)Man(a1-3)[Fuc(a1-2)[Gal(a1-3)]Gal(b1-3)GlcNAc(b1-2)Man(a1-6)]Man(b1-4)GlcNAc(b1-4)[Fuc(a1-6)]GlcNAc
Procedure, shortened: as §1

[28] = target: Fuc(a1-2)[Gal(a1-3)]Gal(b1-3)GlcNAc(b1-3)GalNAc
Procedure, shortened: as §1

Binder: KISKRILTGKK [NK11 (Sus scrofa)]
- glycan array binding signal (z-score) [1]: 0.234
- glycan array binding signal (z-score) [2]: -0.495
- glycan array binding signal (z-score) [3]: 1.2
- glycan array binding signal (z-score) [4]: 0.299
- glycan array binding signal (z-score) [5]: 0.09
- glycan array binding signal (z-score) [6]: 0.131
- glycan array binding signal (z-score) [7]: 0.348
- glycan array binding signal (z-score) [8]: -0.705
- glycan array binding signal (z-score) [9]: -0.339
- glycan array binding signal (z-score) [10]: 1.06
- glycan array binding signal (z-score) [11]: 0.226
- glycan array binding signal (z-score) [12]: 0.572
- glycan array binding signal (z-score) [13]: 0.385
- glycan array binding signal (z-score) [14]: -0.13
- glycan array binding signal (z-score) [15]: -0.781
- glycan array binding signal (z-score) [16]: 0.933
- glycan array binding signal (z-score) [17]: -0.454
- glycan array binding signal (z-score) [18]: -0.071
- glycan array binding signal (z-score) [19]: -0.567
- glycan array binding signal (z-score) [20]: -0.235
- glycan array binding signal (z-score) (Fuc(a1-2)Gal6S(b1-4)Glc): -0.458
- glycan array binding signal (z-score) [21]: -0.268
- glycan array binding signal (z-score) [22]: -0.302
- glycan array binding signal (z-score) (Fuc(a1-2)[Gal(a1-3)]Gal): -0.515
- glycan array binding signal (z-score) [23]: 0.028
- glycan array binding signal (z-score) [24]: -0.219
- glycan array binding signal (z-score) [25]: 1.13
- glycan array binding signal (z-score) [26]: -0.23
- glycan array binding signal (z-score) [27]: -0.614
- glycan array binding signal (z-score) [28]: 0.052
